Results on five molecules are retold here after PMC12781873.

Amino acid sequences for entries named in this document (tags omitted).
UniProt P22147: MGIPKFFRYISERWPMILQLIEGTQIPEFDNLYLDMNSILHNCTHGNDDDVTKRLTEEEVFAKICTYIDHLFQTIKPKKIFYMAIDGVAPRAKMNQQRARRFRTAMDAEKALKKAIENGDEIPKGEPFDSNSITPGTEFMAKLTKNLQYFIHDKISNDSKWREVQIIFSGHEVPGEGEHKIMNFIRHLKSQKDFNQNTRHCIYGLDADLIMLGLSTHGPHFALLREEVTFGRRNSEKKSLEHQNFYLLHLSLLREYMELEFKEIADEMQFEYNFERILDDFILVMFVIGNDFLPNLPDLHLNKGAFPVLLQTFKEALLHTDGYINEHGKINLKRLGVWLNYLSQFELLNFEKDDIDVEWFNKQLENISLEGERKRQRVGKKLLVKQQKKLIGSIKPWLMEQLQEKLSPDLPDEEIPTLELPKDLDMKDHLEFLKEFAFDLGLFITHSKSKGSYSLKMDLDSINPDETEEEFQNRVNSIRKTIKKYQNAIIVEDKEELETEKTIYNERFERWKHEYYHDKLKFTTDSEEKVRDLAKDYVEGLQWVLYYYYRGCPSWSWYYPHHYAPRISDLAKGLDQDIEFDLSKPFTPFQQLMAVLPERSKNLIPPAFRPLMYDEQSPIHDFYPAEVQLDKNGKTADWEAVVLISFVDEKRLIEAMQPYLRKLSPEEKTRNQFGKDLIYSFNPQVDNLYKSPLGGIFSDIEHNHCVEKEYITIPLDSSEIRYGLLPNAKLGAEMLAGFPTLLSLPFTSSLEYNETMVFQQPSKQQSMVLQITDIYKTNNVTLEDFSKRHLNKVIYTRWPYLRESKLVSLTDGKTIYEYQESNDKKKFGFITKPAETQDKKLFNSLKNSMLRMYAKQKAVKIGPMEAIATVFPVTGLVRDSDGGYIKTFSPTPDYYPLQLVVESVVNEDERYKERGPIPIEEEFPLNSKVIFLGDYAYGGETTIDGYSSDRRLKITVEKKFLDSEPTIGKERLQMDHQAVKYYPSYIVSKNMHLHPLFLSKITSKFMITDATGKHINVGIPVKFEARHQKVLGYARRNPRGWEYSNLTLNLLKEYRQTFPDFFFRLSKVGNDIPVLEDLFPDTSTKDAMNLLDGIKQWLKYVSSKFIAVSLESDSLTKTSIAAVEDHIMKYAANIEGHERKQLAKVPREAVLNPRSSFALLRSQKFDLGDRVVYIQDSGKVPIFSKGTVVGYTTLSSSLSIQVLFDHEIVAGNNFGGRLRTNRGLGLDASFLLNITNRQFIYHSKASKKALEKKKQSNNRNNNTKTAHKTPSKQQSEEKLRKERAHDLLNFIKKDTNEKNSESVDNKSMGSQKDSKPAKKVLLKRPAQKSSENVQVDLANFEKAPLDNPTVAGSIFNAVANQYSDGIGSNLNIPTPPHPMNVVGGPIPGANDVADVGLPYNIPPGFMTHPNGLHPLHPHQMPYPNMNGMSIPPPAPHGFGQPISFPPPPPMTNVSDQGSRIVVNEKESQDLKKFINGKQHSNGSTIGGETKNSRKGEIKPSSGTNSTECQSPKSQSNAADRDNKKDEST

Results are given in words; binding and its absence hold for the method and conditions named. Binding seen in cells or lysates may run through a third protein. Some entries that bind do so weakly or less than the wild type. For some of these results: Sequences can lack the tags named with a protein.

Assay [1] deals with T1, Rrp6 (GFP-tagged) (S. cerevisiae) (UniProt Q12149).
T1 sequence: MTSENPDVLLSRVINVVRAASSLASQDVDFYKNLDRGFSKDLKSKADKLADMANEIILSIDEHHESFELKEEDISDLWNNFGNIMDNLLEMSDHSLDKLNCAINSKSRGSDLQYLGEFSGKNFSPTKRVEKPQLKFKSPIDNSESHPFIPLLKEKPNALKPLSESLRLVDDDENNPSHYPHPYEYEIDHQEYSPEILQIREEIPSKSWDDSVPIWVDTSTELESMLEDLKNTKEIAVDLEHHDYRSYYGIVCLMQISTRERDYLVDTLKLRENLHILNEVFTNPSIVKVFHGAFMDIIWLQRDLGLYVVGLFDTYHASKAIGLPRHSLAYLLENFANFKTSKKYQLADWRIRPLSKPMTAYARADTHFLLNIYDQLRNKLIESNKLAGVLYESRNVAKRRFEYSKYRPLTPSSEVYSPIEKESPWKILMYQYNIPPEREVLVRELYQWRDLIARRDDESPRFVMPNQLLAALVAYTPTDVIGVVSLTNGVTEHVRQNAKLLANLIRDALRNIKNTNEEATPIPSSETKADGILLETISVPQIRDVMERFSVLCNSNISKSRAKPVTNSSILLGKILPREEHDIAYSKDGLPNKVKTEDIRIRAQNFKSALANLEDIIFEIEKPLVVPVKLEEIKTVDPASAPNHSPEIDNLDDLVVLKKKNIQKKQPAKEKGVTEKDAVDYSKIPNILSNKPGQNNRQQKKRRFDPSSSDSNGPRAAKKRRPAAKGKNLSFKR
Nature of the assay: co-IP; GFP-tagged proteins pulled down from yeast lysate (blot that goes with the RIP experiment); co-precipitated Lhp1 detected through its myc-tag.

For a further assay, the target named is T2, Usb1–GFP (S. cerevisiae) (UniProt Q12208).
T2 sequence: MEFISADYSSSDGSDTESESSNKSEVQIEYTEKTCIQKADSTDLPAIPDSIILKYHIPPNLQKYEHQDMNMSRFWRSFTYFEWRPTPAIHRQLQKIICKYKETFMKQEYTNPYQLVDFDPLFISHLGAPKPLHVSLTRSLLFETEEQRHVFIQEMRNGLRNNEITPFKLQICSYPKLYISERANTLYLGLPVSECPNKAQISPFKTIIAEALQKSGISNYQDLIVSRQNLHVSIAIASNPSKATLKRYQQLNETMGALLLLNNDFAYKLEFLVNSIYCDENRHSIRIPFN
Nature of the assay: co-IP; yeast lysate in PBSKMT buffer (PBS pH 7.4, 3 mM KCl, 2.5 mM MgCl2, 0.5 % Triton X-100); lysate split in two, one portion with RNase A 200 μg/ml; GFP- or MYC-tagged protein precipitated on GFP- or MYC-conjugated beads, 5 h at 4°C; western blot; Mex67 with Lhp1 also in the lsm8-1 mutant.

The next assay addresses T3, Lhp1-myc (S. cerevisiae) (UniProt P33399).
T3 sequence: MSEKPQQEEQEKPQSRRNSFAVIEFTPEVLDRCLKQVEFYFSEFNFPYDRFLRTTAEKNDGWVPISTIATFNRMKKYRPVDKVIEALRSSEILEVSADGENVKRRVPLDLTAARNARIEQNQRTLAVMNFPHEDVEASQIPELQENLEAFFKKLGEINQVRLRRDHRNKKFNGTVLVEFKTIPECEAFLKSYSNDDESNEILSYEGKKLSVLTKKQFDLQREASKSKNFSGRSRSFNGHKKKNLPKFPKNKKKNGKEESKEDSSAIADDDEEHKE
The description is as above.

In assay [2] the target is T4, Lsm8 (as used in Fig. 3I) (S. cerevisiae) (UniProt P47093).
T4 sequence: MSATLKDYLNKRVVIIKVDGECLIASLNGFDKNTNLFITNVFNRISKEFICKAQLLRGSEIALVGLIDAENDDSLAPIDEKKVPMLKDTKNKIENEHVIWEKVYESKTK
The assay is described as above.

For another assay, the target named is Xrn1–GFP (S. cerevisiae) (UniProt P22147). Described as above.
A further assay deals with T5, Dcp2–GFP (S. cerevisiae) (UniProt P53550).
T5 sequence: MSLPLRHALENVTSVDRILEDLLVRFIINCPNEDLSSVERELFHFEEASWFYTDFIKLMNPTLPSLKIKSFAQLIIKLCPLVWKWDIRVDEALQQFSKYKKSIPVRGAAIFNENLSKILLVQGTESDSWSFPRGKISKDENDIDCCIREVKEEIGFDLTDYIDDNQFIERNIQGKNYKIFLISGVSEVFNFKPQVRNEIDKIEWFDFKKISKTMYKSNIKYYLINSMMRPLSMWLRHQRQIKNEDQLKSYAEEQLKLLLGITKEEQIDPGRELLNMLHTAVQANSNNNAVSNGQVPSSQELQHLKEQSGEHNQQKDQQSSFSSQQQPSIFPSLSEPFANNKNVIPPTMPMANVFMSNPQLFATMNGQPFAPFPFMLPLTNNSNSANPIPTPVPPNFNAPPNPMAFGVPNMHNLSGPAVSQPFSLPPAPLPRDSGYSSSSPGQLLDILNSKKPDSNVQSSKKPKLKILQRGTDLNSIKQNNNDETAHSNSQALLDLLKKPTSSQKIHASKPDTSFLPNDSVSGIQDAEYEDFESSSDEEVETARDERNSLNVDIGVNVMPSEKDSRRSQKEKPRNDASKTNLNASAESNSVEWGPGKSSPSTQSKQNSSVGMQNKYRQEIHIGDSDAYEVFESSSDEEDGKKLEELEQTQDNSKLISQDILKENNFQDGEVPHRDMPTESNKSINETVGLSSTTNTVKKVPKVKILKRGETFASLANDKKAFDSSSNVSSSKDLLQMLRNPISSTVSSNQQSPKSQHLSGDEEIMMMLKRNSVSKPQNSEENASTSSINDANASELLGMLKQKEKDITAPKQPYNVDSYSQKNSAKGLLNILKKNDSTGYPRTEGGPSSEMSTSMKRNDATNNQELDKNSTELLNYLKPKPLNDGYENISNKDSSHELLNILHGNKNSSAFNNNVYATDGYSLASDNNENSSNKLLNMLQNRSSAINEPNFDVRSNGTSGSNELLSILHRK
The assay is described as above.

The target in another assay is T6, Lhp1–GFP (S. cerevisiae) (UniProt P33399).
T6 sequence: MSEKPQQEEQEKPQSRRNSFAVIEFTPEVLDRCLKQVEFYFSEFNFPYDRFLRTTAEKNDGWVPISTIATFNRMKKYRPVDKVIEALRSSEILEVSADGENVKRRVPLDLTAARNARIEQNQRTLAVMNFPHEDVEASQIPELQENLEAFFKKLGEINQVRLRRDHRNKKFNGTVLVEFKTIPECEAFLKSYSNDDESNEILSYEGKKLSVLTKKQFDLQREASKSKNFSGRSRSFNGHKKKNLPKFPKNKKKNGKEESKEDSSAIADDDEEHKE
Described as above.

B1: Lhp1-myc (protein, UniProt P33399 1-275)
chain: MSEKPQQEEQEKPQSRRNSFAVIEFTPEVLDRCLKQVEFYFSEFNFPYDRFLRTTAEKNDGWVPISTIATFNRMKKYRPVDKVIEALRSSEILEVSADGENVKRRVPLDLTAARNARIEQNQRTLAVMNFPHEDVEASQIPELQENLEAFFKKLGEINQVRLRRDHRNKKFNGTVLVEFKTIPECEAFLKSYSNDDESNEILSYEGKKLSVLTKKQFDLQREASKSKNFSGRSRSFNGHKKKNLPKFPKNKKKNGKEESKEDSSAIADDDEEHKE
B1: the binding entry (in assay [1]; with Usb1–GFP (S. cerevisiae)) was “binds” throughout.

B2: Rnt1 (enzyme, UniProt Q02555 1-471)
chain: MGSKVAGKKKTQNDNKLDNENGSQQRENINTKTLLKGNLKISNYKYLEVIQLEHAVTKLVESYNKIIELSPNLVAYNEAVNNQDRVPVQILPSLSRYQLKLAAELKTLHDLKKDAILTEITDYENEFDTEQKQPILQEISKADMEKLEKLEQVKREKREKIDVNVYENLNEKEDEEEDEGEDSYDPTKAGDIVKATKWPPKLPEIQDLAIRARVFIHKSTIKDKVYLSGSEMINAHNERLEFLGDSILNSVMTLIIYNKFPDYSEGQLSTLRMNLVSNEQIKQWSIMYNFHEKLKTNFDLKDENSNFQNGKLKLYADVFEAYIGGLMEDDPRNNLPKIRKWLRKLAKPVIEEATRNQVALEKTDKLDMNAKRQLYSLIGYASLRLHYVTVKKPTAVDPNSIVECRVGDGTVLGTGVGRNIKIAGIRAAENALRDKKMLDFYAKQRAAIPRSESVLKDPSQKNKKRKFSDTS
Turning to B2, the binding entry with Lhp1-myc (S. cerevisiae) was “binds”.

B3: Usb1 (as used in Fig. 3I) (enzyme, UniProt Q12208 1-290)
chain: MEFISADYSSSDGSDTESESSNKSEVQIEYTEKTCIQKADSTDLPAIPDSIILKYHIPPNLQKYEHQDMNMSRFWRSFTYFEWRPTPAIHRQLQKIICKYKETFMKQEYTNPYQLVDFDPLFISHLGAPKPLHVSLTRSLLFETEEQRHVFIQEMRNGLRNNEITPFKLQICSYPKLYISERANTLYLGLPVSECPNKAQISPFKTIIAEALQKSGISNYQDLIVSRQNLHVSIAIASNPSKATLKRYQQLNETMGALLLLNNDFAYKLEFLVNSIYCDENRHSIRIPFN
Regarding B3, the binding entry in assay [2] is reported as “binds”.

B4: Hrb1 (protein, UniProt P38922 1-454)
chain: MSDQERGSENNNRSRSRSRSPVRRRMSDDHGYERDNHLSRRSGNYNGRRKFADTYRGSRDRGEYRGGRERSDYRERERFNNRDNPRSRDRYDDRRRGRDVTGRYGNRRDDYPRSFRSRHNTRDDSRRGGFGSSGARGDYGPLLARELDSTYEEKVNRNYSNSIFVGNLTYDSTPEDLTEFFSQIGKVVRADIITSRGHHRGMGTVEFTNSDDVDRAIRQYDGAFFMDRKIFVRQDNPPPSNNIKERKALDRGELRHNRKTHEVIVKNLPASVNWQALKDIFKECGNVAHADVELDGDGVSTGSGTVSFYDIKDLHRAIEKYNGYSIEGNVLDVKSKESVHNHSDGDDVDIPMDDSPVNEEARKFTENVVGGGERNRLIYCSNLPFSTAKSDLYDLFETIGKVNNAELRYDSKGAPTGIAVVEYDNVDDADVCIERLNNYNYGGCDLDISYAKRL
As for B4, the binding result is listed as “binds” with Xrn1–GFP (S. cerevisiae), “binds” with Dcp2–GFP (S. cerevisiae) and “binds weakly” in the assay with Lhp1–GFP (S. cerevisiae).

B5: Gbp2 (protein, UniProt P25555 1-427)
chain: MERELGMYGNDRSRSRSPVRRRLSDDRDRYDDYNDSSSNNGNGSRRQRRDRGSRFNDRYDQSYGGSRYHDDRNWPPRRGGRGRGGSRSFRGGRGGGRGRTLGPIVERDLERQFDATKRNFENSIFVRNLTFDCTPEDLKELFGTVGEVVEADIITSKGHHRGMGTVEFTKNESVQDAISKFDGALFMDRKLMVRQDNPPPEAAKEFSKKATREEIDNGFEVFIINLPYSMNWQSLKDMFKECGHVLRADVELDFNGFSRGFGSVIYPTEDEMIRAIDTFNGMEVEGRVLEVREGRFNKRKNNDRYNQRREDLEDTRGTEPGLAQDAAVHIDETAAKFTEGVNPGGDRNCFIYCSNLPFSTARSDLFDLFGPIGKINNAELKPQENGQPTGVAVVEYENLVDADFCIQKLNNYNYGGCSLQISYARRD
Turning to B5, the figures for the binding entry with Xrn1–GFP (S. cerevisiae), with Dcp2–GFP (S. cerevisiae) and with Lhp1–GFP (S. cerevisiae) were “binds”, “binds” and “binds weakly”, respectively.
